Results from publication PMC9070665.
These are yes or no findings as the source states them, for the method shown. Binding seen in cells or lysates may run through a third protein. Here binding means that the protein was enriched with, or labelled near, the bait; the list need not be complete.

Sequences of proteins named here, by UniProt entry; tags and fusion partners are left off.
UniProt Q96S21: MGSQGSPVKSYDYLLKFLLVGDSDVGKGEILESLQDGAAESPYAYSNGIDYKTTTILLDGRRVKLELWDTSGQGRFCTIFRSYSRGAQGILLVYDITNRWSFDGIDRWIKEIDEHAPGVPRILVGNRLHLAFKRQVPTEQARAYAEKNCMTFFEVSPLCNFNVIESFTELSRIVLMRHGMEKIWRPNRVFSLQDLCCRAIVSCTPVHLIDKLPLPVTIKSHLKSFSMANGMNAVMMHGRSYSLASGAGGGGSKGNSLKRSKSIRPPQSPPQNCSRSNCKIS
UniProt Q93034: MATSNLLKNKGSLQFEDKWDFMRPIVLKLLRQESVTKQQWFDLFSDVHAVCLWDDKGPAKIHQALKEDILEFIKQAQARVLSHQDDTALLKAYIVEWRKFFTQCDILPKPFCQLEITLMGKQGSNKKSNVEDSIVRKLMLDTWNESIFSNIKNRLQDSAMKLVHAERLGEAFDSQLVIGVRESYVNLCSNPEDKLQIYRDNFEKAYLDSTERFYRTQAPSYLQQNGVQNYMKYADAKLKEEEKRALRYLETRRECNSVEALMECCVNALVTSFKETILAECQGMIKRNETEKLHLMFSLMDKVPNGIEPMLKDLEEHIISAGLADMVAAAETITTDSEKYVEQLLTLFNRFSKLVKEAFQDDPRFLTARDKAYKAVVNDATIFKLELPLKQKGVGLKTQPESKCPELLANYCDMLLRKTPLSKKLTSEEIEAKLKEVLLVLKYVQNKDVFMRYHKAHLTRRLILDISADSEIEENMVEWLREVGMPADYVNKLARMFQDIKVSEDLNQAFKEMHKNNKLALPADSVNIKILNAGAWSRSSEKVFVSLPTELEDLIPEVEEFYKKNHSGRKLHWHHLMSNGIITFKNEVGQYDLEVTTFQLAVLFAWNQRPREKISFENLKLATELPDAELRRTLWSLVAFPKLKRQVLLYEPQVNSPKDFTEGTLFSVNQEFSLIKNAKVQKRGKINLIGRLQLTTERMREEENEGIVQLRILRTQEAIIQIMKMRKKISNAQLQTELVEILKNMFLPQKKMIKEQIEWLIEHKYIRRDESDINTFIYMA
UniProt Q15370: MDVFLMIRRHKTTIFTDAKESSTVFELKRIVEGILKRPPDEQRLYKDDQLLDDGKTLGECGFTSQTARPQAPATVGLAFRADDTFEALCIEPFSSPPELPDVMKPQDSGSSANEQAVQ
UniProt P62140: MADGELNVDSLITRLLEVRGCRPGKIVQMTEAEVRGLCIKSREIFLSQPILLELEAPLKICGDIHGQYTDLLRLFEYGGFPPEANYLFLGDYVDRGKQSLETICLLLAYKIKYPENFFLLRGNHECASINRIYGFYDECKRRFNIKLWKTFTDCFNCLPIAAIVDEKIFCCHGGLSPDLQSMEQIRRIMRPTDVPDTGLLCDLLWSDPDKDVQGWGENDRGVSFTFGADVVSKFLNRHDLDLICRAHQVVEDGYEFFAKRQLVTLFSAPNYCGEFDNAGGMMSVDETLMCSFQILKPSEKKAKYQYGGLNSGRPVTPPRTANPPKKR
UniProt P67775: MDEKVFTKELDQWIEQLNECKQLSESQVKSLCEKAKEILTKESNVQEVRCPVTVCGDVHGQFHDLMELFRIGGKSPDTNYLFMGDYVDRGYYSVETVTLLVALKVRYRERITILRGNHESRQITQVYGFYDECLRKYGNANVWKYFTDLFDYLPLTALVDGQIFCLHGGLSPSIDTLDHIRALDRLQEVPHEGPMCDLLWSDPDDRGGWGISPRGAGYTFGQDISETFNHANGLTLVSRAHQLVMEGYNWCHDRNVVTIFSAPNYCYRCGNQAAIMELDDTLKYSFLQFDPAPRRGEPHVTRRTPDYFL
UniProt Q9UBF6: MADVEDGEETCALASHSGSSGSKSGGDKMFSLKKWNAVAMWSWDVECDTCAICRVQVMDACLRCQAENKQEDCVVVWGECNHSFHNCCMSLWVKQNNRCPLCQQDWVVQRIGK

Molecular target: FLAG-Rab40c (human) (UniProt Q96S21)
Assay: affinity purification with mass spectrometry; anti-FLAG antibody cross-linked to Protein G-Sepharose beads (or control mouse IgG beads) incubated with Triton X-100 lysates (PBS, 1% Triton X-100, 10 mM PMSF) of MDA-MB-231 cells stably expressing FLAG-Rab40c or FLAG-Rab40c-4A; PBS wash; elution with 1% SDS; tandem mass spectrometry

Molecule | binding
Cullin5 (from UniProt Q93034 1-780) | binds
Elongin B (from UniProt Q15370 1-118) | binds
PP1CB (from UniProt P62140 1-327) (enzyme) | binds
ankyrin repeat domain 28 (ANKRD28) (protein, UniProt O15084 1-1053) MAFLKLRDQPSLVQAIFNGDPDEVRALIFKKEDVNFQDNEKRTPLHAAAYLGDAEIIELLILSGARVNAKDSKWLTPLHRAVASCSEEAVQVLLKHSADVNARDKNWQTPLHIAAANKAVKCAEALVPLLSNVNVSDRAGRTALHHAAFSGHGEMVKLLLSRGANINAFDKKDRRAIHWAAYMGHIEVVKLLVSHGAEVTCKDKKSYTPLHAAASSGMISVVKYLLDLGVDMNEPNAYGNTPLHVACYNGQDVVVNELIDCGAIVNQKNEKGFTPLHFAAASTHGALCLELLVGNGADVNMKSKDGKTPLHMTALHGRFSRSQTIIQSGAVIDCEDKNGNTPLHIAARYGHELLINTLITSGADTAKRGIHGMFPLHLAALSGFSDCCRKLLSSGFDIDTPDDFGRTCLHAAAAGGNLECLNLLLNTGADFNKKDKFGRSPLHYAAANCNYQCLFALVGSGASVNDLDERGCTPLHYAATSDTDGKCLEYLLRNDANPGIRDKQGYNAVHYSAAYGHRLCLQLIASETPLDVLMETSGTDMLSDSDNRATISPLHLAAYHGHHQALEVLVQSLLDLDVRNSSGRTPLDLAAFKGHVECVDVLINQGASILVKDYILKRTPIHAAATNGHSECLRLLIGNAEPQNAVDIQDGNGQTPLMLSVLNGHTDCVYSLLNKGANVDAKDKWGRTALHRGAVTGHEECVDALLQHGAKCLLRDSRGRTPIHLSAACGHIGVLGALLQSAASMDANPATADNHGYTALHWACYNGHETCVELLLEQEVFQKTEGNAFSPLHCAVINDNEGAAEMLIDTLGASIVNATDSKGRTPLHAAAFTDHVECLQLLLSHNAQVNSVDSTGKTPLMMAAENGQTNTVEMLVSSASAELTLQDNSKNTALHLACSKGHETSALLILEKITDRNLINATNAALQTPLHVAARNGLTMVVQELLGKGASVLAVDENGYTPALACAPNKDVADCLALILATMMPVSSSSPLSSLTFNAINRYTNTSKTVSFEALPIMRNEPSSYCSFNNIGGEQEYLYTDVDELNDSDSETY | binds
PP6R1 (protein, UniProt Q9UPN7 1-881) MFWKFDLHTSSHLDTLLEREDLSLPELLDEEDVLQECKVVNRKLLDFLLQPPHLQAMVAWVTQEPPDSGEERLRYKYPSVACEILTSDVPQINDALGADESLLNRLYGFLQSTGSLNPLLASFFSKVMGILINRKTDQLVSFLRKKDDFVDLLLQHIGTSAIMDLLLRLLTCVERPQLRQDVVNWLNEEKIVQRLIEQIHPSKDENQHSNASQSLCDIIRLSREQMIQVQDSPEPDQLLATLEKQETIEQLLSNMFEGEQSQSVIVSGIQVLLTLLEPRRPRSESVTVNSFFSSVDGQLELLAQGALESTVSSVGALHALRPRLSCFHQLLLEPPKLEPLQMTWGMLAPPLGNTRLHVVKLLASALSANDAALTHELLALDVPNTMLDLFFHYVFNNFLHAQVEGCVSTMLSLGPPPDSSPETPIQNPVVKHLLQQCRLVERILTSWEENDRVQCAGGPRKGYMGHLTRVAGALVQNTEKGPNAEQLRQLLKELPSEQQEQWEAFVSGPLAETNKKNMVDLVNTHHLHSSSDDEDDRLKEFNFPEEAVLQQAFMDFQMQRMTSAFIDHFGFNDEEFGEQEESVNAPFDKTANITFSLNADDENPNANLLEICYKDRIQQFDDDEEEEDEEEAQGSGESDGEDGAWQGSQLARGARLGQPPGVRSGGSTDSEDEEEEDEEEEEDEEGIGCAARGGATPLSYPSPGPQPPGPSWTATFDPVPTDAPTSPRVSGEEELHTGPPAPQGPLSVPQGLPTQSLASPPARDALQLRSQDPTPPSAPQEATEGSKVTEPSAPCQALVSIGDLQATFHGIRSAPSSSDSATRDPSTSVPASGAHQPPQTTEGEKSPEPLGLPQSQSAQALTPPPIPNGSAPEGPASPGSQ | binds
PPM1G (enzyme, UniProt O15355 1-546) MGAYLSQPNTVKCSGDGVGAPRLPLPYGFSAMQGWRVSMEDAHNCIPELDSETAMFSVYDGHGGEEVALYCAKYLPDIIKDQKAYKEGKLQKALEDAFLAIDAKLTTEEVIKELAQIAGRPTEDEDEKEKVADEDDVDNEEAALLHEEATMTIEELLTRYGQNCHKGPPHSKSGGGTGEEPGSQGLNGEAGPEDSTRETPSQENGPTAKAYTGFSSNSERGTEAGQVGEPGIPTGEAGPSCSSASDKLPRVAKSKFFEDSEDESDEAEEEEEDSEECSEEEDGYSSEEAENEEDEDDTEEAEEDDEEEEEEMMVPGMEGKEEPGSDSGTTAVVALIRGKQLIVANAGDSRCVVSEAGKALDMSYDHKPEDEVELARIKNAGGKVTMDGRVNGGLNLSRAIGDHFYKRNKNLPPEEQMISALPDIKVLTLTDDHEFMVIACDGIWNVMSSQEVVDFIQSKISQRDENGELRLLSSIVEELLDQCLAPDTSGDGTGCDNMTCIIICFKPRNTAELQPESGKRKLEEVLSTEGAEENGNSDKKKKAKRD | binds

Results, then the molecule that gave them:

binding | Molecule
binds | PP2CA (from UniProt P67775 1-309) (enzyme)
binds | Rbx2 (from UniProt Q9UBF6 1-113)
binds | catalytic PP6 subunit (PP6c) (enzyme, UniProt O00743 1-305) MAPLDLDKYVEIARLCKYLPENDLKRLCDYVCDLLLEESNVQPVSTPVTVCGDIHGQFYDLCELFRTGGQVPDTNYIFMGDFVDRGYYSLETFTYLLALKAKWPDRITLLRGNHESRQITQVYGFYDECQTKYGNANAWRYCTKVFDMLTVAALIDEQILCVHGGLSPDIKTLDQIRTIERNQEIPHKGAFCDLVWSDPEDVDTWAISPRGAGWLFGAKVTNEFVHINNLKLICRAHQLVHEGYKFMFDEKLVTVWSAPNYCYRCGNIASIMVFKDVNTREPKLFRAVPDSERVIPPRTTTPYFL
binds | ANKRD52 (protein, UniProt Q8NB46 1-1076) MGILSITDQPPLVQAIFSRDVEEVRSLLSQKENINVLDQERRTPLHAAAYVGDVPILQLLLMSGANVNAKDTLWLTPLHRAAASRNEKVLGLLLAHSADVNARDKLWQTPLHVAAANRATKCAEALAPLLSSLNVADRSGRSALHHAVHSGHLETVNLLLNKGASLNVCDKKERQPLHWAAFLGHLEVLKLLVARGADLGCKDRKGYGLLHTAAASGQIEVVKYLLRMGAEIDEPNAFGNTALHIACYLGQDAVAIELVNAGANVNQPNDKGFTPLHVAAVSTNGALCLELLVNNGADVNYQSKEGKSPLHMAAIHGRFTRSQILIQNGSEIDCADKFGNTPLHVAARYGHELLISTLMTNGADTARRGIHDMFPLHLAVLFGFSDCCRKLLSSGQLYSIVSSLSNEHVLSAGFDINTPDNLGRTCLHAAASGGNVECLNLLLSSGADLRRRDKFGRTPLHYAAANGSYQCAVTLVTAGAGVNEADCKGCSPLHYAAASDTYRRAEPHTPSSHDAEEDEPLKESRRKEAFFCLEFLLDNGADPSLRDRQGYTAVHYAAAYGNRQNLELLLEMSFNCLEDVESTIPVSPLHLAAYNGHCEALKTLAETLVNLDVRDHKGRTALFLATERGSTECVEVLTAHGASALIKERKRKWTPLHAAAASGHTDSLHLLIDSGERADITDVMDAYGQTPLMLAIMNGHVDCVHLLLEKGSTADAADLRGRTALHRGAVTGCEDCLAALLDHDAFVLCRDFKGRTPIHLASACGHTAVLRTLLQAALSTDPLDAGVDYSGYSPMHWASYTGHEDCLELLLEHSPFSYLEGNPFTPLHCAVINNQDSTTEMLLGALGAKIVNSRDAKGRTPLHAAAFADNVSGLRMLLQHQAEVNATDHTGRTALMTAAENGQTAAVEFLLYRGKADLTVLDENKNTALHLACSKGHEKCALMILAETQDLGLINATNSALQMPLHIAARNGLASVVQALLSHGATVLAVDEEGHTPALACAPNKDVADCLALILSTMKPFPPKDAVSPFSFSLLKNCSIAAAKTVGGCGALPHGASCPYSQERPGAIGLDGCYSE
